# In US11169156B2, “Long wavelength voltage sensitive dyes” (The Regents of the University of California, priority 2015, dated 2021):
# “Also recorded” adds a separate entry of the source.
# Tests used:
# HEK cells = test: Epifluorescence imaging of dye staining and localization in HEK cells; format: cell-based, Human; conditions: HEK cells bathed in 1 μM dye, 631 nm illumination
# rat hippocampal neurons = test: Cross-excitation in hippocampal neurons loaded with dye; format: cell-based
SMILES,cellular fluorescence / localization (HEK cells),"fluorescence on 390 nm excitation relative to 631 nm excitation (rat hippocampal neurons; cellular membranes, 9.7 W/cm2, emission 680 nm)","fluorescence on 475 nm excitation relative to 631 nm excitation (rat hippocampal neurons; stained cells, 9.7 W/cm^2, emission 680 nm)"
"COc1cc(N(C)C)ccc1/C=C/c1ccc(/C=C/c2ccc(C3=C4C=CC(=[N+](C)C)C=C4[Si](C)(C)c4cc(N(C)C)ccc43)c(S(=O)(=O)[O-])c2)cc1 [BeRST 1, 5-((E)-4-((E)-4-(Dimethylamino)-2-methoxystyryl)styryl)-2-(7-(dimethylamino)-3-(dimethyliminio)-5,5-dimethyl-3,5-dihydrodibenzo[b,e]silin-10-yl)benzenesulfonate]",localizes to cell membranes; also recorded: Clear membrane staining,approximately 47%,approximately 4%
"CN(C)c1ccc2c(c1)[Si](C)(C)C1=CC(=[N+](C)C)C=CC1=C2c1ccccc1S(=O)(=O)[O-] [BR, 2-(7-(Dimethylamino)-3-(dimethyliminio)-5,5-dimethyl-3,5-dihydrodibenzo[b,e]silin-10-yl) benzenesulfonate]",negligible cytosolic fluorescence; also recorded: negligible cellular fluorescence,,
